Some results were stated once for a whole list of compounds, not compound by compound.
Tests used:
Assay type in all cases: in vivo
Aphis craccivora = test: B.1 Cowpea aphid spray test on potted cowpea plants; conditions: 500 ppm; population reduction assessed after 24, 72 and 120 hours
Megoura viciae = test: B.4 Vetch aphid bean leaf disk microtiter test; conditions: 2500 ppm; 6 days
Aphis gossypii = test: B.2 Cotton aphid, mixed life stages, spray test on cotton plants; conditions: 10 ppm; after 5 days
Protocol: B.2 Cotton Aphid (Aphis gossypii, Mixed Life Stages)
(§1) The active compounds were formulated in cyclohexanone as a 10,000 ppm solution supplied in 1.3 ml ABgene® tubes. These tubes were inserted into an automated electrostatic sprayer equipped with an atomizing nozzle and they served as stock solutions for which lower dilutions were made in 1:1 (vol:vol) water:aceton. A nonionic surfactant (Kinetic®) was included in the solution at a volume of 0.01% (v/v).
Cotton plants at the cotyledon stage were infested with aphids prior to treatment by placing a heavily infested leaf from the main aphid colony on top of each cotyledon. Aphids were allowed to transfer overnight to accomplish an infestation of 80-100 aphids per plant and the host leaf was removed. The infested plants were then sprayed by an automated electrostatic plant sprayer equipped with an atomizing spray nozzle. The plants were dried in the sprayer fume hood, removed from the sprayer, and then maintained in a growth room under fluorescent lighting in a 24-hr photoperiod at 25° C. and 20-40% relative humidity. Aphid mortality on the treated plants, relative to mortality on untreated control plants, was determined after 5 days.

Myzus persicae = test: B.5 Green peach aphid spray test on bell pepper plants; conditions: 10 ppm; after 5 days
Protocol: B.5 Green Peach Aphid (Myzus persicae)
as §1
Bell pepper plants at the first true-leaf stage were infested prior to treatment by placing heavily infested leaves from the main colony on top of the treatment plants. Aphids were allowed to transfer overnight to accomplish an infestation of 30-50 aphids per plant and the host leaves were removed. The infested plants were then sprayed by an automated electrostatic plant sprayer equipped with an atomizing spray nozzle. The plants were dried in the sprayer fume hood, removed, and then maintained in a growth room under fluorescent lighting in a 24 hour photoperiod at 25° C. and 20-40% relative humidity. Aphid mortality on the treated plants, relative to mortality on untreated control plants, was determined after 5 days.

Measured: mortality in comparison with untreated controls

CCN(C(=O)c1cnn(C(C)C2CC2)c1C)c1cccnc1 (stereo not drawn) [I-378]
at least 75%: all assays above

COCN(C(=O)c1cnn(C(C)CC#N)c1C)c1ccnnc1 (stereo not drawn) [I-77]
at least 75%: all assays above

Cc1c(C(=O)Nc2ccnnc2)cnn1C(C)c1cccnc1 (stereo not drawn) [I-125]
at least 75%: all assays above

Cc1c(C(=O)Nc2cccnc2)cnn1C1(C#N)CCCCC1 [I-152]
at least 75%: all assays above

COCN(C(=O)c1cnn(C(C)C2CC2)c1C)c1cccnc1 (stereo not drawn) [I-375]
at least 75%: all assays above

Cc1c(C(=O)N(C)c2ccnnc2)cnn1C(C)C(F)(F)F (single isomer, unassigned) [I-381]
at least 75%: all assays above

CCN(C(=O)c1cnn(C(C)(C)C#N)c1C)c1cccnc1 [I-196]
at least 75%: all assays above

CCC(n1ncc(C(=O)Nc2cccnc2)c1C)C(F)(F)F (stereo not drawn) [I-106]
at least 75%: all assays above

Cc1c(C(=O)N(C)c2ccnnc2)cnn1C(C)C1CC1 (single isomer, unassigned) [I-383]
at least 75%: all assays above

Cc1c(C(=O)N(C)c2ccnnc2)cnn1C(C)C(C)(C)C (racemic) [I-42]
at least 75%: all assays above

Cc1c(C(=O)N(C)c2cccnc2)cnn1C1(C(F)(F)F)CCOCC1 [I-131]
at least 75%: all assays above

Cc1c(C(=O)N(C)c2cccnc2)cnn1C(C)C(C)C (stereo not drawn) [I-100]
at least 75%: all assays above

CCN(C(=O)c1cnn(C(C)Cc2ccccc2)c1C)c1cccnc1 (stereo not drawn) [I-118]
at least 75%: all assays above

CCN(C(=O)c1cnn(C(C)C(C)C)c1C)c1cccnc1 (stereo not drawn) [I-101]
at least 75%: all assays above

Cc1c(C(=O)Nc2cccnc2)cnn1C(C)C(C)C (stereo not drawn) [I-99]
at least 75%: all assays above

Cc1c(C(=O)N(C)c2ccnnc2)cnn1C(C)Cc1ccccc1 (stereo not drawn) [I-120]
at least 75%: all assays above

CCN(C(=O)c1cnn(C2(C#N)CCCCC2)c1C)c1cccnc1 [I-140]
at least 75%: all assays above

Cc1c(C(=O)Nc2cccnc2)cnn1C(C)C(C)(C)C (racemic) [I-44]
at least 75%: all assays above

Cc1c(C(=O)N(C)c2ccnnc2)cnn1C1CC1(Cl)Cl (stereo not drawn) [I-66]
at least 75%: all assays above

CCC(CC)n1ncc(C(=O)Nc2ccnnc2)c1C [I-47]
at least 75%: all assays above

CCN(C(=O)c1cnn(C2CCC2)c1C)c1ccnnc1 [I-15]
at least 75%: all assays above

CCOC(=O)CC(C)n1ncc(C(=O)N(CC)c2ccnnc2)c1C (racemic) [I-232]
at least 75%: all assays above

COCCC(C)n1ncc(C(=O)N(C)c2cccnc2)c1C (stereo not drawn) [I-136]
at least 75%: all assays above

CCOCN(C(=O)c1cnn(C(C)C2CC2)c1C)c1cccnc1 (racemic) [I-60]
at least 75%: all assays above

Cc1c(C(=O)N(C)c2cccnc2)cnn1C(C)C(C)(C)C (racemic) [I-45]
at least 75%: all assays above

Cc1c(C(=O)Nc2cccnc2)cnn1C(C)Cc1ccccc1 (stereo not drawn) [I-116]
at least 75%: all assays above

COC(C)(C)CC(C)n1ncc(C(=O)N(C)c2ccnnc2)c1C (stereo not drawn) [I-17]
at least 75%: all assays above

Cc1c(C(=O)N(C)c2ccnnc2)cnn1C1CCC1 [I-16]
at least 75%: all assays above

Cc1c(C(=O)N(C)c2cccnc2)cnn1C(C)(C)C(F)(F)F [I-81]
at least 75%: all assays above

CCC(CC)n1ncc(C(=O)N(C)c2ccnnc2)c1C [I-48]
at least 75%: all assays above
